Experimental findings from PMC7856738 are described below.

By UniProt entry, the sequences of proteins in these tests, tags left out.
UniProt Q9Y5S2: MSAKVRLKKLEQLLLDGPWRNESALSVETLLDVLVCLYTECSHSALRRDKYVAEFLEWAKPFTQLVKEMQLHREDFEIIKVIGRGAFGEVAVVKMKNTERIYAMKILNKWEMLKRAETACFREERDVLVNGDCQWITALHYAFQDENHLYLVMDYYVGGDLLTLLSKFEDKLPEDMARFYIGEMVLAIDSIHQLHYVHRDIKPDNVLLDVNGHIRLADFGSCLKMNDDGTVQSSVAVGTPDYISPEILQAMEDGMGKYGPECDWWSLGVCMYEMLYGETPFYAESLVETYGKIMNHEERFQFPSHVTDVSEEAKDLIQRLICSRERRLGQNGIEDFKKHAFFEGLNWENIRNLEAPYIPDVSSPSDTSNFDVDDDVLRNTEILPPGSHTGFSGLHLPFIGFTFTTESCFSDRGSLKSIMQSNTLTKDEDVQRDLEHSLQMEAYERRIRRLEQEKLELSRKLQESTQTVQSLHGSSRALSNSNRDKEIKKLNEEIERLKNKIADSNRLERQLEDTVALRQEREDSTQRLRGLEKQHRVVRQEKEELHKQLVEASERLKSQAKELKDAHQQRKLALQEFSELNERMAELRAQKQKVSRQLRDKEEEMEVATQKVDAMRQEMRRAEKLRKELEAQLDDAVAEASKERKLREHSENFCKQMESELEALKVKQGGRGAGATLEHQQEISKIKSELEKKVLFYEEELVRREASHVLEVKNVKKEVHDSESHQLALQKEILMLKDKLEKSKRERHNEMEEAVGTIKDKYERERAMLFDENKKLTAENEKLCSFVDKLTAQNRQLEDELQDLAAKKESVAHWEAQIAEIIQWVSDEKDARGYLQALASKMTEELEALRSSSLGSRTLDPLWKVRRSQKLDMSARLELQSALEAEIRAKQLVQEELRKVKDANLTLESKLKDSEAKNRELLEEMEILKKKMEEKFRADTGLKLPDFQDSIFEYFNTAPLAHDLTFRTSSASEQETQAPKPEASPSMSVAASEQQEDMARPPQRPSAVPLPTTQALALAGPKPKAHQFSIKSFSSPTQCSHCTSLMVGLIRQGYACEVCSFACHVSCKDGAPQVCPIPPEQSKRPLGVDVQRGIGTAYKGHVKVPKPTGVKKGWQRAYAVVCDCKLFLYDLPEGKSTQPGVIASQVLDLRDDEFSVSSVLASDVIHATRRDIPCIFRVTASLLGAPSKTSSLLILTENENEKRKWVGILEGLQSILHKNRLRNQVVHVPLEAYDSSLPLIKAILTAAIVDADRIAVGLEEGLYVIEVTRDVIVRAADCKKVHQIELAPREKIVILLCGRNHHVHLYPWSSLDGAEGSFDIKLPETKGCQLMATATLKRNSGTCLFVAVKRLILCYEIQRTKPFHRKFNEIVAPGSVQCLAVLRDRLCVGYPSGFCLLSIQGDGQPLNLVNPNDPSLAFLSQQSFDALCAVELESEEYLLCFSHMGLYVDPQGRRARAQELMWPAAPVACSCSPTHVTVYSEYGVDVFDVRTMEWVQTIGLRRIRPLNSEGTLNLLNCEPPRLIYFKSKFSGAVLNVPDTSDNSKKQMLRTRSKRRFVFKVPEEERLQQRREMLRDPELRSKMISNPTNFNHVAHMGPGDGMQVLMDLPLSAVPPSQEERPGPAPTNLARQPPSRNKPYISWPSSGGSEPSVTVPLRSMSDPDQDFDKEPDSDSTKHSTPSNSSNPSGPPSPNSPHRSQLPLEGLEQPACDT

Results are given in words; binding and its absence hold for the method and conditions named. In cells and extracts the contact can be indirect. Some entries that bind do so weakly or less than the wild type.

For this assay, the target named is T1, seven in absentia homolog 2 (Siah2), endogenous (human (endogenous in MKN45)) (UniProt O43255).
T1 sequence: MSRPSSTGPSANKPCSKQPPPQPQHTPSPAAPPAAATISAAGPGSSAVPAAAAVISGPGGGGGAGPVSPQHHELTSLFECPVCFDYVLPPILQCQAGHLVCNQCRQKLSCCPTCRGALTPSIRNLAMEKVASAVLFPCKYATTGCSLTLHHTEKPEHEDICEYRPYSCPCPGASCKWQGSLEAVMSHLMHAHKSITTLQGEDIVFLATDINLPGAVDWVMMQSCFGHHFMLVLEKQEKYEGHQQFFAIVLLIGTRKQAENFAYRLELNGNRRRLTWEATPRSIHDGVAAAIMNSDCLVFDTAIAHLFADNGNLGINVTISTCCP
Nature of the assay: co-IP; whole cell lysates of uninfected or H. pylori-infected (200 MOI, 12 h) MKN45 cells, with or without 50 µM MG132, immunoprecipitated with Siah2 antibody; western blot for MRCKβ. Background: Immunoblotting shows a protein as a band on a membrane.

On to “myotonic dystrophy kinase-related Cdc42-binding kinase β (MRCKβ), endogenous (from UniProt Q9Y5S2 1-1711) (enzyme)”, for which the binding result is recorded as “binds”.
